Reference: PMC4627235
These are yes or no findings as the source states them, for the method shown. In cells and extracts the contact can be indirect. Some results given as binding are weak or reduced against the parent protein; the word gives no strength. Tags and fused reporters may be left off the sequences shown.

Amino acid sequences for entries named in this document (tags omitted).
UniProt Q14247: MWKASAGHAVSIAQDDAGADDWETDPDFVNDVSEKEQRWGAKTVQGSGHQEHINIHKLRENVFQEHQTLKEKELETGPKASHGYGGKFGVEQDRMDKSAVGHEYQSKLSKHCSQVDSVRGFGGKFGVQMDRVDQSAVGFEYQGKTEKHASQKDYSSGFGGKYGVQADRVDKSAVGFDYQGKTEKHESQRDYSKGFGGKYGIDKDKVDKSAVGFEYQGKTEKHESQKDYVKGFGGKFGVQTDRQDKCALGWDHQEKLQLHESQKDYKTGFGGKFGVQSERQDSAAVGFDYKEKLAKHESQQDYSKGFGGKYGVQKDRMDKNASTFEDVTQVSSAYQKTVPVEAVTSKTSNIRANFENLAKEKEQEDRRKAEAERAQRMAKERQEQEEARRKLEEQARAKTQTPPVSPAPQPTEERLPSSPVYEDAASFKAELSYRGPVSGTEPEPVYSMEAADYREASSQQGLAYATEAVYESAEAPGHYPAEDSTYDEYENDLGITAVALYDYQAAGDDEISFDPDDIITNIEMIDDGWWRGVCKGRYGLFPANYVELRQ

T1: GFP tagged wild type XB130 (human) (UniProt Q8N4X5)
T1 sequence: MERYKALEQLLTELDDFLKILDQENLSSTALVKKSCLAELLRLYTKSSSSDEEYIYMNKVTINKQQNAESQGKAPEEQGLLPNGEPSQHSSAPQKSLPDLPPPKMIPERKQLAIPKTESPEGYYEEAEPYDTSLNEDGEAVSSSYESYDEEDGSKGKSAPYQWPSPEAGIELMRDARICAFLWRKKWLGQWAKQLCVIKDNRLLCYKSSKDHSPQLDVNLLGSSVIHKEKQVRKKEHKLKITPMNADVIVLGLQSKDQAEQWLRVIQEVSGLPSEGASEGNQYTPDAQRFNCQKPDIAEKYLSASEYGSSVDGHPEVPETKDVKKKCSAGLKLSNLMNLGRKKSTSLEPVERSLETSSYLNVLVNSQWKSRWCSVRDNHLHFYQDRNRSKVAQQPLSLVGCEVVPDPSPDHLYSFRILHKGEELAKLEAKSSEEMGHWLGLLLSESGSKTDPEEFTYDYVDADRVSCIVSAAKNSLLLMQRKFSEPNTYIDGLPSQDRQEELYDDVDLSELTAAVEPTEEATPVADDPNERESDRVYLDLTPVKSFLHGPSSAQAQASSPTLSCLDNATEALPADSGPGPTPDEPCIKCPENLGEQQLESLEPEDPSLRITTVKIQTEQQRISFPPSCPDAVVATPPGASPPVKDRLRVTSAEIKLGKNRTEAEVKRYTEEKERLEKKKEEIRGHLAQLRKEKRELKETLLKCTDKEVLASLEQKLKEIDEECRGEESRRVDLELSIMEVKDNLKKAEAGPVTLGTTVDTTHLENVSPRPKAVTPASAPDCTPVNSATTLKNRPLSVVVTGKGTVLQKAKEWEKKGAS


Assays:
[1] = biological target: T1, GFP tagged wild type XB130 (human); test: co-IP; lysates (RIPA buffer, diluted in NET buffer) of BEAS2B cells stably expressing GFP-XB130, treated with 0.1 uM NNK up to 30 min; incubated overnight at 4°C with anti-cortactin or anti-XB130 antibody, protein G-sepharose, western blot
[2] = biological target: cortactin (human (endogenous in BEAS2B)) (UniProt Q14247); test: as above

| binding [1] | binding [2] | Molecule |
| --- | --- | --- |
| binds |  | cortactin (from UniProt Q14247 1-550) |
|  | binds | GFP tagged wild type XB130 (protein, UniProt Q8N4X5 1-818) MERYKALEQLLTELDDFLKILDQENLSSTALVKKSCLAELLRLYTKSSSSDEEYIYMNKVTINKQQNAESQGKAPEEQGLLPNGEPSQHSSAPQKSLPDLPPPKMIPERKQLAIPKTESPEGYYEEAEPYDTSLNEDGEAVSSSYESYDEEDGSKGKSAPYQWPSPEAGIELMRDARICAFLWRKKWLGQWAKQLCVIKDNRLLCYKSSKDHSPQLDVNLLGSSVIHKEKQVRKKEHKLKITPMNADVIVLGLQSKDQAEQWLRVIQEVSGLPSEGASEGNQYTPDAQRFNCQKPDIAEKYLSASEYGSSVDGHPEVPETKDVKKKCSAGLKLSNLMNLGRKKSTSLEPVERSLETSSYLNVLVNSQWKSRWCSVRDNHLHFYQDRNRSKVAQQPLSLVGCEVVPDPSPDHLYSFRILHKGEELAKLEAKSSEEMGHWLGLLLSESGSKTDPEEFTYDYVDADRVSCIVSAAKNSLLLMQRKFSEPNTYIDGLPSQDRQEELYDDVDLSELTAAVEPTEEATPVADDPNERESDRVYLDLTPVKSFLHGPSSAQAQASSPTLSCLDNATEALPADSGPGPTPDEPCIKCPENLGEQQLESLEPEDPSLRITTVKIQTEQQRISFPPSCPDAVVATPPGASPPVKDRLRVTSAEIKLGKNRTEAEVKRYTEEKERLEKKKEEIRGHLAQLRKEKRELKETLLKCTDKEVLASLEQKLKEIDEECRGEESRRVDLELSIMEVKDNLKKAEAGPVTLGTTVDTTHLENVSPRPKAVTPASAPDCTPVNSATTLKNRPLSVVVTGKGTVLQKAKEWEKKGAS |
